# These are yes or no findings as the source states them, for the method shown. Binding seen in cells or lysates may run through a third protein. Some results given as binding are weak or reduced against the parent protein; the word gives no strength. For part of these data: Sequences can lack the tags named with a protein.
# By UniProt entry, the sequences of proteins in these tests, tags left out. Where a name states a change or a piece, a line headed by the entry shows the natural chain unless it says otherwise.
# UniProt P02994: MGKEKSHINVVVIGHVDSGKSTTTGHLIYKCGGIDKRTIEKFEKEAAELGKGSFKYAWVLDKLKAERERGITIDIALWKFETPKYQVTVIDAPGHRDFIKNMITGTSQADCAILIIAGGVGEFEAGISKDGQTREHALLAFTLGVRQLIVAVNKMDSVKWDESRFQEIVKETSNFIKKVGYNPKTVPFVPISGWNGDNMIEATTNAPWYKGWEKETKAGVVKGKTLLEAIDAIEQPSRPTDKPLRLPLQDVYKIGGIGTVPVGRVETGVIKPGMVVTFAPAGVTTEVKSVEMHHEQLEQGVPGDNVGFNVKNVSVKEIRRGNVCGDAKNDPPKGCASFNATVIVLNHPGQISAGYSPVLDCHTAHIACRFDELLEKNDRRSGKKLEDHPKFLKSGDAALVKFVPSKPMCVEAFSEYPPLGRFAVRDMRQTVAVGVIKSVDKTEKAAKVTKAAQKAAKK
# UniProt P40150: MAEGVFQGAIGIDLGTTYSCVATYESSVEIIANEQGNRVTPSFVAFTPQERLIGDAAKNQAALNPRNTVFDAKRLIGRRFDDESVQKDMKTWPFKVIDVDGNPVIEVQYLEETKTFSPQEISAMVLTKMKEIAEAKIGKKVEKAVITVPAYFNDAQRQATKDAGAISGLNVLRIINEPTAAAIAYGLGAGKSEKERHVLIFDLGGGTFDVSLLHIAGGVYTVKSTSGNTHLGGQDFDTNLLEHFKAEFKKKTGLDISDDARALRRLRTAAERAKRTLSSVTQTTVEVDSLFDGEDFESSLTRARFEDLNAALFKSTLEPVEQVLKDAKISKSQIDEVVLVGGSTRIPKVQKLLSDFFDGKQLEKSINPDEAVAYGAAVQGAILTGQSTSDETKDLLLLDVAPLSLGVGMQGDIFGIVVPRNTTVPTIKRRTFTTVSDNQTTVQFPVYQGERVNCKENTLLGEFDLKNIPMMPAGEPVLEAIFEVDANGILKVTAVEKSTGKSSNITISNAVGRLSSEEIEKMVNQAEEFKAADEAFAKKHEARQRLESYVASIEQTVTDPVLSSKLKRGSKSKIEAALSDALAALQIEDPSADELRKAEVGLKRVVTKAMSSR
# UniProt Q13526: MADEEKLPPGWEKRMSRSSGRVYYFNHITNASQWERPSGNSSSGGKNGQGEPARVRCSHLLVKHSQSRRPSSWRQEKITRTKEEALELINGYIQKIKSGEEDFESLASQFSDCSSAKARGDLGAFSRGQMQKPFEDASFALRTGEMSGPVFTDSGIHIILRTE
# T1: 3-phosphoglycerate kinase (Pgk1p), endogenous (S. cerevisiae (endogenous in yeast)) (UniProt P00560)
# T1 sequence: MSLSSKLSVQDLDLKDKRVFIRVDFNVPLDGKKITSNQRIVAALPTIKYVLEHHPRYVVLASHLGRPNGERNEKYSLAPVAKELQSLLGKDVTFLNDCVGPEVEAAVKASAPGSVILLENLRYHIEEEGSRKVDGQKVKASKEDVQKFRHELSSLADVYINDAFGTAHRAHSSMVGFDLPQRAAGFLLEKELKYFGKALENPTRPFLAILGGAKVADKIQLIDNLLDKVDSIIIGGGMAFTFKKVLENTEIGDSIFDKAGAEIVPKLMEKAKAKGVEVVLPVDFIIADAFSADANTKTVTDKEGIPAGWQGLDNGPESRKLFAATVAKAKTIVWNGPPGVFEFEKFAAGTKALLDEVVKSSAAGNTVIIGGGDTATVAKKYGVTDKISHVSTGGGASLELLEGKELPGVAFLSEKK
# T2: eIF2A-HA (chromosomally C-terminally HA-tagged eIF2A under its endogenous promoter) (S. cerevisiae) (UniProt P53235)
# T2 sequence: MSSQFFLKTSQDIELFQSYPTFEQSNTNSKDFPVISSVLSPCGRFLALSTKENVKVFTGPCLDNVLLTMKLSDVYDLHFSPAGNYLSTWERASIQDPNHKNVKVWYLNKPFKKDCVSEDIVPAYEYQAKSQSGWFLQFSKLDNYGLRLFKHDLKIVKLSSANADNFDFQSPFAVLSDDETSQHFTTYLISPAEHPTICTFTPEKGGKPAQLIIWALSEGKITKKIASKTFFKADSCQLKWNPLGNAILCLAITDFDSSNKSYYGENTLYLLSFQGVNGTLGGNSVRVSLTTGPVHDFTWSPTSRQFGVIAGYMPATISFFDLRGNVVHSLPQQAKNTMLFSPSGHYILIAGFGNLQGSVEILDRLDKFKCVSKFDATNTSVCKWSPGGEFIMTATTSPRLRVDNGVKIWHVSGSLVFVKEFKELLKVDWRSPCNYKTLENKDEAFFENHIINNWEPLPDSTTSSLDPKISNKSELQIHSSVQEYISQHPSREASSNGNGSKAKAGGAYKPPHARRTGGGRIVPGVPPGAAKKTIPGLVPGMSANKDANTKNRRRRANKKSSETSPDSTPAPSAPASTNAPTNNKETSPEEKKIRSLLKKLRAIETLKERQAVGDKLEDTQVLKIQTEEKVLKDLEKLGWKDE
# Key:
# [1] = biological target: T1, 3-phosphoglycerate kinase (Pgk1p), endogenous (S. cerevisiae (endogenous in yeast)); test: co-IP; pre-cleared eIF2A-HA yeast lysate, antibody (α-HA, α-3-phosphoglycerate kinase, α-eEF1A antiserum or preimmune serum; α-Kem1p experiments done likewise) at 4°C, protein A Sepharose, NETK washes, Western blot; without RNase A
# [2] = biological target: T2, eIF2A-HA (chromosomally C-terminally HA-tagged eIF2A under its endogenous promoter) (S. cerevisiae); test: as above
# [3] = biological target: GST-eEF1A S405P (S. cerevisiae) (UniProt P02994); test: pull-down; GST-fusion protein on glutathione-sepharose 4B incubated with 140 µg pre-cleared lysate of eIF2A-HA yeast or C-terminal eIF2A-HA deletion yeast, washed with NETK buffer, Western blot for HA; without RNase A; only the target purified
# [4] = biological target: GST-eEF1A (full-length eEF1A/Tef1p fused to GST) (S. cerevisiae) (UniProt P02994); test: as above
# [5] = biological target: GST-Ssb2p (S. cerevisiae) (UniProt P40150); test: as above
# [6] = biological target: GST-PIN1, a mammalian cis-trans prolyl isomerase (mammalian) (UniProt Q13526); test: as above
# [7] = biological target: GST-eEF1A (full-length eEF1A/Tef1p fused to GST) (S. cerevisiae) (UniProt P02994); test: pull-down; as the GST pull-down with eIF2A-HA yeast lysate, half of the reaction treated with 10 µg RNaseA for 1 h at 4°C before SDS-PAGE and Western blot for HA; only the target purified
# [8] = biological target: GST-Ssb2p (S. cerevisiae) (UniProt P40150); test: as above
# [9] = biological target: eEF1A (eukaryotic translation elongation factor 1A), endogenous (S. cerevisiae (endogenous in yeast)) (UniProt P02994); test: co-IP; pre-cleared eIF2A-HA yeast lysate, antibody (α-HA, α-3-phosphoglycerate kinase, α-eEF1A antiserum or preimmune serum; α-Kem1p experiments done likewise) at 4°C, protein A Sepharose, NETK washes, Western blot; without RNase A
# [10] = biological target: GST-eEF1A (full-length eEF1A/Tef1p fused to GST) (S. cerevisiae) (UniProt P02994); test: pull-down; full-length GST-eEF1A on glutathione-Sepharose with lysates of ΔeIF2A yeast carrying YCplac111-YP, grown 1 h without or with 6% ethanol; Western blot for HA, bands quantified with Image J against 8% input; only the target purified
molecule,measurement,setting,value
"eEF1A (eukaryotic translation elongation factor 1A), endogenous (from UniProt P02994 1-458)",binding,[1],no binding
same,binding,[2],binds
"eIF2A-HA (chromosomally C-terminally HA-tagged eIF2A under its endogenous promoter) (protein, UniProt P53235 1-642) MSSQFFLKTSQDIELFQSYPTFEQSNTNSKDFPVISSVLSPCGRFLALSTKENVKVFTGPCLDNVLLTMKLSDVYDLHFSPAGNYLSTWERASIQDPNHKNVKVWYLNKPFKKDCVSEDIVPAYEYQAKSQSGWFLQFSKLDNYGLRLFKHDLKIVKLSSANADNFDFQSPFAVLSDDETSQHFTTYLISPAEHPTICTFTPEKGGKPAQLIIWALSEGKITKKIASKTFFKADSCQLKWNPLGNAILCLAITDFDSSNKSYYGENTLYLLSFQGVNGTLGGNSVRVSLTTGPVHDFTWSPTSRQFGVIAGYMPATISFFDLRGNVVHSLPQQAKNTMLFSPSGHYILIAGFGNLQGSVEILDRLDKFKCVSKFDATNTSVCKWSPGGEFIMTATTSPRLRVDNGVKIWHVSGSLVFVKEFKELLKVDWRSPCNYKTLENKDEAFFENHIINNWEPLPDSTTSSLDPKISNKSELQIHSSVQEYISQHPSREASSNGNGSKAKAGGAYKPPHARRTGGGRIVPGVPPGAAKKTIPGLVPGMSANKDANTKNRRRRANKKSSETSPDSTPAPSAPASTNAPTNNKETSPEEKKIRSLLKKLRAIETLKERQAVGDKLEDTQVLKIQTEEKVLKDLEKLGWKDE",binding,[3],binds
same,binding,[4],binds
same,binding,[5],binds
same,binding,[6],no binding
same,binding,[7],binds
same,binding,[8],binds
same,binding,[9],binds
"C-terminally truncated, HA-tagged eIF2A with deletion of amino acids 571–642 (domain or fragment, UniProt P53235 1-571) MSSQFFLKTSQDIELFQSYPTFEQSNTNSKDFPVISSVLSPCGRFLALSTKENVKVFTGPCLDNVLLTMKLSDVYDLHFSPAGNYLSTWERASIQDPNHKNVKVWYLNKPFKKDCVSEDIVPAYEYQAKSQSGWFLQFSKLDNYGLRLFKHDLKIVKLSSANADNFDFQSPFAVLSDDETSQHFTTYLISPAEHPTICTFTPEKGGKPAQLIIWALSEGKITKKIASKTFFKADSCQLKWNPLGNAILCLAITDFDSSNKSYYGENTLYLLSFQGVNGTLGGNSVRVSLTTGPVHDFTWSPTSRQFGVIAGYMPATISFFDLRGNVVHSLPQQAKNTMLFSPSGHYILIAGFGNLQGSVEILDRLDKFKCVSKFDATNTSVCKWSPGGEFIMTATTSPRLRVDNGVKIWHVSGSLVFVKEFKELLKVDWRSPCNYKTLENKDEAFFENHIINNWEPLPDSTTSSLDPKISNKSELQIHSSVQEYISQHPSREASSNGNGSKAKAGGAYKPPHARRTGGGRIVPGVPPGAAKKTIPGLVPGMSANKDANTKNRRRRANKKSSETSPDSTPAP",binding,[4],binds
"HA-eIF2A (N-terminally HA-tagged eukaryotic initiation factor 2A expressed from YCplac111-YP) (natural protein, S. cerevisiae, UniProt P53235 1-642, looked up, yeast eukaryotic initiation factor 2A, encoded by YGR054w; the HA-tagged eIF2A coding region behind its natural promoter; the kind of modification is not known; also called HA-tagged eIF2A; YGR054w; source: BY4684 ΔeIF2A yeast transformed with YCplac111-YP (native promoter), in lysate; not shown: HA, N-terminal, kept) MSSQFFLKTSQDIELFQSYPTFEQSNTNSKDFPVISSVLSPCGRFLALSTKENVKVFTGPCLDNVLLTMKLSDVYDLHFSPAGNYLSTWERASIQDPNHKNVKVWYLNKPFKKDCVSEDIVPAYEYQAKSQSGWFLQFSKLDNYGLRLFKHDLKIVKLSSANADNFDFQSPFAVLSDDETSQHFTTYLISPAEHPTICTFTPEKGGKPAQLIIWALSEGKITKKIASKTFFKADSCQLKWNPLGNAILCLAITDFDSSNKSYYGENTLYLLSFQGVNGTLGGNSVRVSLTTGPVHDFTWSPTSRQFGVIAGYMPATISFFDLRGNVVHSLPQQAKNTMLFSPSGHYILIAGFGNLQGSVEILDRLDKFKCVSKFDATNTSVCKWSPGGEFIMTATTSPRLRVDNGVKIWHVSGSLVFVKEFKELLKVDWRSPCNYKTLENKDEAFFENHIINNWEPLPDSTTSSLDPKISNKSELQIHSSVQEYISQHPSREASSNGNGSKAKAGGAYKPPHARRTGGGRIVPGVPPGAAKKTIPGLVPGMSANKDANTKNRRRRANKKSSETSPDSTPAPSAPASTNAPTNNKETSPEEKKIRSLLKKLRAIETLKERQAVGDKLEDTQVLKIQTEEKVLKDLEKLGWKDE",binding,[10],binds
"C-terminally truncated, HA-tagged eIF2A with the further deletion of amino acids 460–571 (domain or fragment, UniProt P53235 1-460) MSSQFFLKTSQDIELFQSYPTFEQSNTNSKDFPVISSVLSPCGRFLALSTKENVKVFTGPCLDNVLLTMKLSDVYDLHFSPAGNYLSTWERASIQDPNHKNVKVWYLNKPFKKDCVSEDIVPAYEYQAKSQSGWFLQFSKLDNYGLRLFKHDLKIVKLSSANADNFDFQSPFAVLSDDETSQHFTTYLISPAEHPTICTFTPEKGGKPAQLIIWALSEGKITKKIASKTFFKADSCQLKWNPLGNAILCLAITDFDSSNKSYYGENTLYLLSFQGVNGTLGGNSVRVSLTTGPVHDFTWSPTSRQFGVIAGYMPATISFFDLRGNVVHSLPQQAKNTMLFSPSGHYILIAGFGNLQGSVEILDRLDKFKCVSKFDATNTSVCKWSPGGEFIMTATTSPRLRVDNGVKIWHVSGSLVFVKEFKELLKVDWRSPCNYKTLENKDEAFFENHIINNWEPLPDS",binding,[4],no binding

# — paper PMC3168509, “Insights into the Role of Yeast eIF2A in IRES-Mediated Translation” (PLoS ONE, 2011)
